Test results: patent US10688099B2, “Methods for modulating the amount of RNA transcripts” (PTC Therapeutics, Inc., priority 2013, dated 2020)
This continues a long series; more values of the same kind are listed elsewhere.

Tested on: RNA isoforms in PNN 1-46 SMA type I patient-derived fibroblasts
Assay: RNA Abundance Modulation (RNA isoform abundance, iFPM, HiSeq RNA sequencing)
Format: cell-based, human
Conditions: 3 μM
Method: Cells from a cell line of interest are cultured in conditions sufficient to yield the number of cells capable of generating enough RNA for subsequent sequencing steps. Cells from the tested cell line are contacted with a compound described herein.
To culture said cells, they are seeded, at appropriate concentrations in a volume of media in a cell culture container and incubated for 4, 5, 6, 7, 8, 9, 10, or more hours. A concentrated solution of compound in a vehicle (e.g., DMSO) is then added in sufficient volume to result in the intended final concentration of the compound, for example 100 nM, 500 nM, 1 μM, 5 μM, 10 μM, 15 μM, 20 μM, or more. The cells may also be treated with vehicle alone, as a control. A number of replicates of each concentration or control may be made (e.g., 2 replicates). The cells are then incubated at a constant temperature appropriate for cell culture of the particular cell line (e.g., 37° C.) for 6, 12, 18, 24, 48, or more hours. After incubation, the growth medium is removed and the cells are washed with the appropriate buffer (e.g., PBS). Cells are then removed from adherence to the cell culture container by treatment with a solution containing trypsin, and the trypsin subsequently quenched with the appropriate volume of buffer (e.g., DMEM-FBS). The cells are then pelleted with gentle centrifugation (e.g., ≤90×g centrifugal force) and resuspended in a buffer to lyse the cells for extraction of RNA. The cell lysates may then be frozen (e.g., at −80° C.) or, alternately, may immediately be used in a procedure to purify the RNA (e.g. by use of the RNEASY PLUS® minikit). The RNA from cell lysates is eluted in the appropriate volume of buffer (e.g., RNEASE-FREE H2O®). The resulting purified RNA may then be sequenced (e.g., using RNASeq) or analyzed using a human exon array (e.g., by GENECHIP® human exon array) to determine changes in the RNA levels in those cells treated with compound compared to those cells treated only with DMSO. The purified RNA may also be quantified by other methods known in the art.
Using the RNA data obtained from sequencing, exon array, or other methods, a statistical analysis can reveal changes in the RNA levels of compound-treated compared with control. For example, t-test p-values may be calculated for the data obtained through sequencing and exon array methods in order to compare compound-treated cells to those treated with the DMSO control. […] Analysis of the sequencing and exon array data may then also yield predictions about the cause of the aberrant amount of an RNA transcript in the cells (e.g., perturbation of RNA splicing, RNA transcription, or RNA stability). These predictions may be further confirmed by methods known in the art. For example, RT-PCR and RT-qPCR may be used to confirm the change in amount of RNA transcripts for one or more particular transcripts of interest.
Following the methods described above in Example 1, PNN 1-46 SMA type I patient-derived fibroblasts were treated with 300 nM or 3 μM Compounds 774 and 808 in 0.5% DMSO.
700,000 cells were seeded in 10 mL of medium (DMEM plus 10% FBS) in a T-75 flask. Cells were allowed to attach for at least 4 hrs, after which 50 μL of a 200× compound solution (100% DMSO) was added to each well, and the plate was incubated at 37° C. for 24 hrs.
At the end of the incubation period, the supernatant was removed and the cells where washed with PBS. TrypLE (Invitrogen) express solution was added (e.g. 1.5 mL per one T75 flask). The flasks were incubated for 3 to 5 min at 37° C. The trypsin was then quenched, e.g., by adding 10 mL DMEM-FBS.
Next, the cells were pelleted using gentle centrifugation without exceeding 90×g centrifugal force. The supernatant was removed and the cell pellet was re-suspended in 600 μL RLT buffer (the RLT buffer was supplemented with beta-mercaptoethanol according to the RNeasy protocol manual) by pipetting up and down until the pellet was completely dissolved […]

CCc1nc(C)cn2nc(-c3cc(=O)n4cc(C5CCN(C)CC5)cc(C)c4n3)cc12 [Compound 774]
abs (Cpd-DMSO) (FDFT1 AK301617): 6 iFPM | amp FC (x + 1) (FDFT1 AK301617): 5.46 | ave Cpd (FDFT1 AK301617): 6 iFPM | FC (x + 1) (FDFT1 AK311246): 2.1901 | L2FC (x + 1) (FDFT1 AK311246): 1.131 | L2abs (Cpd-DMSO) (FDFT1 AK311246): 8.78 | abs (Cpd-DMSO) (FDFT1 AK311246): 438 iFPM | amp FC (x + 1) (FDFT1 AK311246): 2.19 | ave Cpd (FDFT1 AK311246): 805 iFPM | FC (x + 1) (FDFT1 AK315993): 1.1754 | L2FC (x + 1) (FDFT1 AK315993): 0.233 | L2abs (Cpd-DMSO) (FDFT1 AK315993): 2.24 | abs (Cpd-DMSO) (FDFT1 AK315993): 5 iFPM | amp FC (x + 1) (FDFT1 AK315993): 1.18 | ave Cpd (FDFT1 AK315993): 31 iFPM | FC (x + 1) (FDFT1 AK316033): 1.6594 | L2FC (x + 1) (FDFT1 AK316033): 0.731 | L2abs (Cpd-DMSO) (FDFT1 AK316033): 4.91 | abs (Cpd-DMSO) (FDFT1 AK316033): 30 iFPM | amp FC (x + 1) (FDFT1 AK316033): 1.66 | ave Cpd (FDFT1 AK316033): 75 iFPM | FC (x + 1) (FDFT1 AK316351): 1.0871 | L2FC (x + 1) (FDFT1 AK316351): 0.121 | L2abs (Cpd-DMSO) (FDFT1 AK316351): 2.70 | abs (Cpd-DMSO) (FDFT1 AK316351): 7 iFPM | amp FC (x + 1) (FDFT1 AK316351): 1.09 | ave Cpd (FDFT1 AK316351): 80 iFPM | FC (x + 1) (FDFT1 AK316531): 2.2247 | L2FC (x + 1) (FDFT1 AK316531): 1.154 | L2abs (Cpd-DMSO) (FDFT1 AK316531): 2.81 | abs (Cpd-DMSO) (FDFT1 AK316531): 7 iFPM | amp FC (x + 1) (FDFT1 AK316531): 2.22 | ave Cpd (FDFT1 AK316531): 12 iFPM | FC (x + 1) (FDFT1 NM_004462): 2.8352 | L2FC (x + 1) (FDFT1 NM_004462): 1.503 | L2abs (Cpd-DMSO) (FDFT1 NM_004462): 11.90 | abs (Cpd-DMSO) (FDFT1 NM_004462): 3831 iFPM | amp FC (x + 1) (FDFT1 NM_004462): 2.84 | ave Cpd (FDFT1 NM_004462): 5917 iFPM | FC (x + 1) (FDPS NM_002004): 2.5881 | L2FC (x + 1) (FDPS NM_002004): 1.372 | L2abs (Cpd-DMSO) (FDPS NM_002004): 6.05 | abs (Cpd-DMSO) (FDPS NM_002004): 66 iFPM | amp FC (x + 1) (FDPS NM_002004): 2.59 | ave Cpd (FDPS NM_002004): 107 iFPM | FC (x + 1) (FDPS NM_001135821): 1.6073 | L2FC (x + 1) (FDPS NM_001135821): 0.685 | L2abs (Cpd-DMSO) (FDPS NM_001135821): 7.83 | abs (Cpd-DMSO) (FDPS NM_001135821): 227 iFPM | amp FC (x + 1) (FDPS NM_001135821): 1.61 | ave Cpd (FDPS NM_001135821): 601 iFPM | FC (x + 1) (FDPS NM_001135822): 2.0949 | L2FC (x + 1) (FDPS NM_001135822): 1.067 | L2abs (Cpd-DMSO) (FDPS NM_001135822): 10.29 | abs (Cpd-DMSO) (FDPS NM_001135822): 1254 iFPM | amp FC (x + 1) (FDPS NM_001135822): 2.09 | ave Cpd (FDPS NM_001135822): 2398 iFPM | FC (x + 1) (FDPS NM_001242824): 1.7469 | L2FC (x + 1) (FDPS NM_001242824): 0.805 | L2abs (Cpd-DMSO) (FDPS NM_001242824): 9.81 | abs (Cpd-DMSO) (FDPS NM_001242824): 900 iFPM | amp FC (x + 1) (FDPS NM_001242824): 1.75 | ave Cpd (FDPS NM_001242824): 2103 iFPM | FC (x + 1) (FDPS NM_001242825): 2.1126 | L2FC (x + 1) (FDPS NM_001242825): 1.079 | L2abs (Cpd-DMSO) (FDPS NM_001242825): 4.98 | abs (Cpd-DMSO) (FDPS NM_001242825): 32 iFPM | amp FC (x + 1) (FDPS NM_001242825): 2.11 | ave Cpd (FDPS NM_001242825): 59 iFPM | FC (x + 1) (FER AK293376): 0.2860 | L2FC (x + 1) (FER AK293376): −1.806 | L2abs (Cpd-DMSO) (FER AK293376): 2.99 | abs (Cpd-DMSO) (FER AK293376): 8 iFPM | amp FC (x + 1) (FER AK293376): 3.50 | ave Cpd (FER AK293376): 2 iFPM | FC (x + 1) (FER AK296874): 2.6320 | L2FC (x + 1) (FER AK296874): 1.396 | L2abs (Cpd-DMSO) (FER AK296874): 0.71 | abs (Cpd-DMSO) (FER AK296874): 2 iFPM | amp FC (x + 1) (FER AK296874): 2.63 | ave Cpd (FER AK296874): 2 iFPM | FC (x + 1) (FER AK299855): 0.0926 | L2FC (x + 1) (FER AK299855): −3.433 | L2abs (Cpd-DMSO) (FER AK299855): 6.41 | abs (Cpd-DMSO) (FER AK299855): 85 iFPM | amp FC (x + 1) (FER AK299855): 10.80 | ave Cpd (FER AK299855): 8 iFPM | FC (x + 1) (FER BC058030): 0.7130 | L2FC (x + 1) (FER BC058030): −0.488 | L2abs (Cpd-DMSO) (FER BC058030): 0.21 | abs (Cpd-DMSO) (FER BC058030): 1 iFPM | amp FC (x + 1) (FER BC058030): 1.40 | ave Cpd (FER BC058030): 2 iFPM | FC (x + 1) (FER NM_005246): 0.3210 | L2FC (x + 1) (FER NM_005246): −1.639 | L2abs (Cpd-DMSO) (FER NM_005246): 7.86 | abs (Cpd-DMSO) (FER NM_005246): 232 iFPM | amp FC (x + 1) (FER NM_005246): 3.12 | ave Cpd (FER NM_005246): 109 iFPM | FC (x + 1) (FEZ1 AK296554): 4.2444 | L2FC (x + 1) (FEZ1 AK296554): 2.086 | L2abs (Cpd-DMSO) (FEZ1 AK296554): 1.70 | abs (Cpd-DMSO) (FEZ1 AK296554): 3 iFPM | amp FC (x + 1) (FEZ1 AK296554): 4.24 | ave Cpd (FEZ1 AK296554): 3 iFPM | FC (x + 1) (FEZ1 CCDS44758): 1.3473 | L2FC (x + 1) (FEZ1 CCDS44758): 0.430 | L2abs (Cpd-DMSO) (FEZ1 CCDS44758): 0.99 | abs (Cpd-DMSO) (FEZ1 CCDS44758): 2 iFPM | amp FC (x + 1) (FEZ1 CCDS44758): 1.35 | ave Cpd (FEZ1 CCDS44758): 7 iFPM | FC (x + 1) (FEZ1 NM_005103): 1.6738 | L2FC (x + 1) (FEZ1 NM_005103): 0.743 | L2abs (Cpd-DMSO) (FEZ1 NM_005103): 7.49 | abs (Cpd-DMSO) (FEZ1 NM_005103): 180 iFPM | amp FC (x + 1) (FEZ1 NM_005103): 1.67 | ave Cpd (FEZ1 NM_005103): 447 iFPM | FC (x + 1) (FEZ1 NM_022549): 0.0317 | L2FC (x + 1) (FEZ1 NM_022549): −4.980 | L2abs (Cpd-DMSO) (FEZ1 NM_022549): 6.11 | abs (Cpd-DMSO) (FEZ1 NM_022549): 69 iFPM | amp FC (x + 1) (FEZ1 NM_022549): 31.56 | ave Cpd (FEZ1 NM_022549): 1 iFPM | FC (x + 1) (FHOD3 AB051482): 0.3516
